Experimental data reported in paper PMC10866704.
These are yes or no findings as the source states them, for the method shown. Binding seen in cells or lysates may run through a third protein. Some results given as binding are weak or reduced against the parent protein; the word gives no strength.

Amino acid sequences for entries named in this document (tags omitted).
UniProt P05556: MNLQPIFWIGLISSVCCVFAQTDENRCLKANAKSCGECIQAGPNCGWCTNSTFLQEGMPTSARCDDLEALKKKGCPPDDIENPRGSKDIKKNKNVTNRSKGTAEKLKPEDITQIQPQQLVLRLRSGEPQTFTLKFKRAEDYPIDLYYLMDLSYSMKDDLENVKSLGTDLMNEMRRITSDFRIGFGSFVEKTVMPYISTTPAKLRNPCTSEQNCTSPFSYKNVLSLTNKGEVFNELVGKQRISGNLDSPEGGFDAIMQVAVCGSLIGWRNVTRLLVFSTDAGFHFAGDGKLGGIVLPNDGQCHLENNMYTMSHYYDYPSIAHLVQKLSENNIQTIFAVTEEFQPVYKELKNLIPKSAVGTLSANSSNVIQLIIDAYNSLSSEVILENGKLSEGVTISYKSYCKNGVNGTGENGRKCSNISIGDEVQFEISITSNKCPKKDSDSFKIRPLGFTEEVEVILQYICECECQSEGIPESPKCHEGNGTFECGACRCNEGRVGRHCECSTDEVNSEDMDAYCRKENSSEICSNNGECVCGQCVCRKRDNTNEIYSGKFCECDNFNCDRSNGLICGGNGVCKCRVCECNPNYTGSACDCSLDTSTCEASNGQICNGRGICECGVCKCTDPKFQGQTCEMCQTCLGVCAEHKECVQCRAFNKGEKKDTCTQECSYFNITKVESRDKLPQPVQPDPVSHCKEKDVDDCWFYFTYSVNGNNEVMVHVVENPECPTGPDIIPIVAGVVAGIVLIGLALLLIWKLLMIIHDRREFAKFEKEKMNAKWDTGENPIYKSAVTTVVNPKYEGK
UniProt Q9HBL0: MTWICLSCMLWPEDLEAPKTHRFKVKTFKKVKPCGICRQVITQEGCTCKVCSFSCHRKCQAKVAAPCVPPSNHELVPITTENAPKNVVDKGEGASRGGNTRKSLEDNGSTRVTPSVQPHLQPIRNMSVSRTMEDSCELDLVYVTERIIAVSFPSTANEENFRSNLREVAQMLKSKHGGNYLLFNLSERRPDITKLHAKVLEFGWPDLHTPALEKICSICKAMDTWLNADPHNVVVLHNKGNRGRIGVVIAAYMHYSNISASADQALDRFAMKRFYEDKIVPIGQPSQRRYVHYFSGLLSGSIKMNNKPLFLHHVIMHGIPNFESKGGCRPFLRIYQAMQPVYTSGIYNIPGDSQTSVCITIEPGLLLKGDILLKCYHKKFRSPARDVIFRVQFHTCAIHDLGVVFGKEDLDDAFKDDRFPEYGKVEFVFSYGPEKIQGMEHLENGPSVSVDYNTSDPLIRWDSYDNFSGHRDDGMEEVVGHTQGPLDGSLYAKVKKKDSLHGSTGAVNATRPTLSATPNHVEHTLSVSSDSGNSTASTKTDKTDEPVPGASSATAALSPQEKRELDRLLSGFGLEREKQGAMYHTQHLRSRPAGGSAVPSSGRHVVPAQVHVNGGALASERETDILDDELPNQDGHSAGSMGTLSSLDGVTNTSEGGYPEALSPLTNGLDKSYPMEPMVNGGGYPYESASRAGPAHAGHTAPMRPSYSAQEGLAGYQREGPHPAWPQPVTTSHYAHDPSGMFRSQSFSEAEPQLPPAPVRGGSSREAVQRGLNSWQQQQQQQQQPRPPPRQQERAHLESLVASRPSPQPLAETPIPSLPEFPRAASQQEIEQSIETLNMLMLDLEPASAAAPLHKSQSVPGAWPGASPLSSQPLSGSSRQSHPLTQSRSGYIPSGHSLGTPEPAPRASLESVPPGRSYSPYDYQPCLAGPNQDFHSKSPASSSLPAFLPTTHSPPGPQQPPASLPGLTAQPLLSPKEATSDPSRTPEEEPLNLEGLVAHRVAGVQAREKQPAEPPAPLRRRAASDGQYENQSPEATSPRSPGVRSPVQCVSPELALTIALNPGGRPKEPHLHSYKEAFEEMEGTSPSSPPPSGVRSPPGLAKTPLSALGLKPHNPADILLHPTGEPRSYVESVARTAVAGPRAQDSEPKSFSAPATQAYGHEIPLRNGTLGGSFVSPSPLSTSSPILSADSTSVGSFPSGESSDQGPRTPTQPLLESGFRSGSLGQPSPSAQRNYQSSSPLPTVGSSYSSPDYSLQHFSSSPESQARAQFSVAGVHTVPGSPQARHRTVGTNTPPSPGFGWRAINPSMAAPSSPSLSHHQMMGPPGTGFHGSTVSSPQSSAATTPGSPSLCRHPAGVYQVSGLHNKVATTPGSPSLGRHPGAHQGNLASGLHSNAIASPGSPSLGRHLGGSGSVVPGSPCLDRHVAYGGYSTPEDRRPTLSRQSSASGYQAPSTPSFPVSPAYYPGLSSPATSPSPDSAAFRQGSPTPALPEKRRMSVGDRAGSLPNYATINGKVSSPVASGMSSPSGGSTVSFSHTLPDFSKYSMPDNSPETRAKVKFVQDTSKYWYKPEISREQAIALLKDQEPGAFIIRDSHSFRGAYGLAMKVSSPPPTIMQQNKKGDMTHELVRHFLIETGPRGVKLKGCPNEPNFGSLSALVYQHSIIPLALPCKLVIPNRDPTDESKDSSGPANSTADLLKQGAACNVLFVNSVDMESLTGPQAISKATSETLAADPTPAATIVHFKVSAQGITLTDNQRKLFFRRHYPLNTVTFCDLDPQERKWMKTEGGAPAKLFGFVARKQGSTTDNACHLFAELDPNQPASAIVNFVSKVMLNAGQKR

Assays:
[1] = molecular target: integrin β1 (human (endogenous in Huh7)) (UniProt P05556); assay: proximity ligation; PLA for integrin β1 and TNS1 in Huh7 cells transfected with empty vector, full-length TNS1-tdTomato or dd-TNS1-tdTomato, in high-viscoelasticity hydrogels; co-localisation of the PLA signal (green) with tdTomato (red)
[2] = molecular target: integrin β1 (human (endogenous in Huh7)) (UniProt P05556); assay: proximity ligation; PLA for integrin β1 and TNS1 in transfected Huh7 cells (tdTomato constructs) in low-viscoelasticity matrix
[3] = molecular target: integrin β1 (human (endogenous in Huh7)) (UniProt P05556); assay: proximity ligation; Duolink PLA with anti-TNS1 and anti-integrin β1 primary antibodies in HCC (Huh7) cells encapsulated in low- versus high-viscoelasticity hydrogels; confocal microscopy, signal counted with ImageJ

Substance | binding [1] | binding [2] | binding [3]
full-length TNS1 in a tdTomato-N1 vector (from UniProt Q9HBL0 1-1839) | binds | no binding (condition: in low viscoelasticity matrix) | 
tensin 1 (TNS1) (from UniProt Q9HBL0 1-1839) |  |  | binds
